Data as given in PubChem BioAssay AID504834 (National Center for Advancing Translational Sciences (NCATS), 2011).
Hit rate of the full screen: of about 320,000 compounds, about 22,000 (6.9%) were called active. Inconclusive means that the source gave no clear call. Such entries were picked first, then a sample of the others. The call rests on the fitted dose curve; in most records, active means well fitted inhibition curve with a large enough effect; inconclusive means small, poorly fitted or top-dose-only effect, or another doubt; inactive means no such curve, though single readings can be large or run the other way. A potency beside an inconclusive call is a rough fit, not a confirmed value.

assay: Primary qHTS for delayed death inhibitors of the malarial parasite plastid, 96 hour incubation; conditions: P. falciparum luciferase reporter growth; series mostly up to 28.7 µM; activity change, negative = inhibition: at the top concentration
Procedure, shortened: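 Cell-based qHTS: luciferase-tagged P. falciparum in erythrocytes (2% hematocrit, 0.05% parasitemia final) incubated with compounds for 96 hours, 37 C, 5% CO2; luciferase detection reagent then added and luminescence measured.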
On the % scale 0 is the no-effect control and ±100 the full control effect; potency means the concentration at half of the fitted maximal effect.

Structure (SMILES)	Potency	activity change, negative = inhibition
Cc1cc(=O)oc2cc(OCC(=O)NCc3ccccn3)ccc12	inconclusive: 0.0738 µM [inhibitor, full curve, poor fit]	
CCOC(=O)C1(Cc2ccccc2)CCN(Cc2cc(=O)c3ccccc3[nH]2)CC1	inconclusive: 18.5 µM [inhibitor, single point]	
C=CCn1c(-c2ccc(Cl)cc2)cnc1SC(C)C(N)=O (centres undefined)	inconclusive: 0.147 µM [inhibitor, full curve, poor fit]	
CCC1CSC(Nc2ccc(C(=O)/C=C/c3ccc(OC)c(OC)c3)cc2)=N1 (centres undefined)	inconclusive: 18.5 µM [inhibitor, single point]	
Cc1ccc(N)cc1S(=O)(=O)N(C)C		inactive: -20.4%
C/C(=C1\SC(N2CCOCC2)=NC1=O)c1ccc(C)cc1	inconclusive: 10.4 µM [inhibitor, single point]	
O=C(Cn1nnc(-c2cccs2)n1)N1CCc2ccccc2C1	inconclusive: 18.5 µM [inhibitor, single point]	
CCCS(=O)(=O)c1nc(S(=O)(=O)c2ccc(C)cc2)c(NCc2ccccn2)s1		inactive: -20.1%
CCOc1ccc2nc(SCCNS(=O)(=O)c3ccccc3)sc2c1		inactive: 41.6%
O=C(Cn1cnc([N+](=O)[O-])n1)N/N=C/c1cccc2ccccc12	inconclusive: 18.5 µM [inhibitor, single point]	
CN(C)c1ccc(N=Cc2nc(-c3ccccc3)oc2OC(=O)c2ccccc2)cc1		inactive: 157%
CCN=C1SC(C(=O)Nc2cccc(C(=O)O)c2)CC(=O)N1CC (centres undefined)	active: 13.1 µM	
COc1ccc(NC(=S)NNC(=O)C2CC2c2ccc(C)cc2)cc1 (centres undefined)	inconclusive: 18.5 µM [inhibitor, single point]	
CCC1CCCCN1C(=O)/C=C/c1ccc2c(c1)OCO2 (centres undefined)	inconclusive: 18.5 µM [inhibitor, single point]	
O=C1NC(=Nc2ccccc2Cl)SC1(CO)CO	active: 13.1 µM	
O=C(N/N=C/c1cc2ccccc2nc1Cl)/C(=C/c1cccs1)NC(=O)c1ccccc1		inactive: 6.36%
CC(=O)N=c1sccn1CC(O)c1ccc(Br)cc1 (centres undefined)		inactive: 39.9%
COCCCC1CCN(Cc2nc(Cc3ccccc3Cl)no2)CC1	inconclusive: 18.5 µM [inhibitor, single point]	
C=C(C)COc1ccc(-c2[nH]ncc2-c2ccccc2OC)c(O)c1		inactive: 11.9%
CCC(=O)N1CCc2cc(S(=O)(=O)NCCC(=O)N3CCc4ccccc4C3)ccc21		inactive: 20.9%
COC(=O)C1CCN(C(=O)CCCOc2ccccc2)CC1		inactive: -3.46%
CCN(CC)c1ccc(NC(=O)/C=C/c2cc(Br)ccc2OC)cc1		inactive: 0%
CCN(CC)C(=O)c1sc2[nH]c(=S)n(-c3ccccc3)c(=O)c2c1C	inconclusive: 0.0041 µM [inhibitor, full curve, poor fit]	
COc1ccccc1CNC(=O)c1ccc2nc(N3CCOCC3)sc2c1		inactive: 53.4%

Structure (SMILES)	Potency	activity change, negative = inhibition
CSc1ccc(CCNC(=O)C2CCCN(c3ncnc4c3nc3n4CCCCC3)C2)cc1 (centres undefined)	inconclusive: 3.7 µM [inhibitor, full curve]	
COc1ccc(CCNC(=O)COc2nsnc2N2CCOCC2)cc1OC	inconclusive: 13.1 µM [inhibitor, single point]	
COc1ccc(C(=O)CSc2nc3ccc([N+](=O)[O-])cc3[nH]2)cc1		inactive: -15.9%
CC(C)(C)N(Cc1ccccc1)C(=O)COC(=O)c1ccc(Br)o1		inactive: -9.41%
CN(c1cccc(NC(=O)c2ccc(CN3CCc4ccccc4C3)cc2)c1)S(C)(=O)=O	inconclusive: 11.7 µM [inhibitor, single point]	
O=S(=O)(Nc1ccc(-c2nc3cccnc3s2)cc1)c1cc(F)ccc1F		inactive: 51.5%
COC(=O)c1ccc(NC(=O)c2cccc(NC(=O)c3ccccc3)c2)cc1	active: 8.28 µM	
Cc1nn(-c2ccccc2)nc1C(=O)Oc1cc(C(F)(F)F)nn1-c1ccccc1		inactive: -29.2%
CO/N=C/C(=N\Nc1ccc(OC)cc1)C(=O)c1ccc(OC)cc1	inconclusive: 18.5 µM [inhibitor, single point]	
Cc1ccc(CNC(=O)C2CCCN(S(=O)(=O)c3ccc(-n4cnnn4)cc3)C2)cc1 (centres undefined)		inactive: 2.98%
COc1cc([N+](=O)[O-])cc(/C=N/NC(=O)c2ccc(C)nc2)c1O	inconclusive: 18.5 µM [inhibitor, single point]	
NCCCn1c(C(=O)c2cc(Cl)c(N)c(Cl)c2)c2ccc([N+](=O)[O-])cc2[n+]1[O-]	inconclusive: 13.1 µM [inhibitor, single point]	
CC1=C(c2ccccc2)[N+](=O)C2(CCCCC2)N1[O-]	inconclusive: 9.28 µM [inhibitor, single point]	
NS(=O)(=O)c1ccc(CNC(=O)Cc2c(F)cccc2Cl)cc1	inconclusive: 10.4 µM [inhibitor, partial curve]	
CCCCC(CC)CNC(=O)C(Cc1ccccc1)NS(=O)(=O)c1ccc2c(c1)CCC(=O)N2 (centres undefined)	active: 11.7 µM	
CCOC(=O)c1c(C)[nH]c(C(=O)OCc2ccccc2F)c1C		inactive: 161%
NC(=O)c1cccc2c1-c1ccccc1/C2=N/NC(N)=S		inactive: 87.4%
Cc1ccc(Nc2ncnc3c2oc2ccccc23)cc1		inactive: 32.8%
CC(C)(C)NC(=O)C1CCCN(S(=O)(=O)c2cccc3cccnc23)C1 (centres undefined)	inconclusive: 13.1 µM [inhibitor, single point]	
OCCC1CN(C2CCSCC2)CCN1C1CCCC1 (centres undefined)		inactive: -12.5%
COc1cc2ccccc2cc1C(=O)Nc1ccc(Br)cn1	inconclusive: 6.57 µM [inhibitor, partial curve, poor fit]	
O=C(CCCn1c(=S)[nH]c2ccsc2c1=O)Nc1ccc2c(c1)OCO2	inconclusive: 18.5 µM [inhibitor, single point]	
Cc1c(C(=O)N(Cc2ccc(N(C)C)cc2)C2CCS(=O)(=O)C2)oc2ccccc12 (centres undefined)	inconclusive: 14.7 µM [inhibitor, single point]	
COc1ccccc1-c1cc(C(=O)N2CCCC2)no1	inconclusive: 18.5 µM [inhibitor, single point]	

Grouped by structure, the entries above with a tert-butyl group (2)
Structure (SMILES)	Potency	activity change, negative = inhibition
CC(C)(C)N(Cc1ccccc1)C(=O)COC(=O)c1ccc(Br)o1		inactive: -9.41%
CC(C)(C)NC(=O)C1CCCN(S(=O)(=O)c2cccc3cccnc23)C1 (centres undefined)	inconclusive: 13.1 µM [inhibitor, single point]	
